Source: patent publication US20250127845A1, “MEDICINAL USES OF OLIGOPEPTIDES IN COMBINATION WITH AN ANTIANDROGEN” (HBC IMMUNOLOGY INC., priority 2022, published 2025)
For some assays here: At least one structure is not confirmed: it was looked up by name or label, or the drawing left a doubt. Some results were stated once for a whole list of compounds, not compound by compound.

Columns and labels:
Type in all cases: cell-based, human
PC3 cells = assay: Clonogenic assay, PC3 cells; conditions: for decrease in survival compared to bicalutamide with 160 SPH: 10 μM oligopeptide with 10 μM bicalutamide, p<0.001
Procedure: (§1) Test Solutions. SPH test solutions were prepared by adding 10 μg, 40 μg, or 160 μg of SPH powder to 1 ml of DMEM containing 0.3% FBS+2% DMSO and sonicating for 10 min just prior to use. Bicalutamide, referred to herein as BIC, (Sigma-Aldrich, Catalog No. B9061) test solutions were prepared by adding 0.43 or 4.3 μg to 1 ml (1 μM and 10 μM) of DMEM containing 0.3% FBS+2% DMSO and sonicating for 10 min just prior to use.
Cell Culture. The C4 subline (CRL-3313™, RRID: CVCL 4783), which was derived from the human prostate carcinoma cell line LNCaP, was obtained from ATCC (Manassas, VA). C4, which is referred to herein as LNCaP, is an exemplary androgen receptor-positive (AR+ve) cell line that has an epithelial-like morphology and a low metastatic potential. The PC-3 cell line (CRL-1435, RRID: CVCL_0035) was obtained from ATCC (Manassas, VA). PC-3 is an exemplary androgen receptor-negative (AR−ve) cell line that has an epithelial morphology and a high metastatic potential. The Vertebral-Cancer of the Prostate (VCaP) cell line was obtained from Sigma-Aldrich, USA (Catalog No. 06020201). VCaP is a human cell line with an epithelial morphology that was established from a metastatic prostate cancer lesion (Korenchuk et al., In Vivo, 15(2):163˜168, 2001). VCaP cells are androgen receptor-positive and express high levels of prostate-specific antigen. The VCaP-EnzR cell line was also obtained from Sigma-Aldrich, USA (Catalog No. SCC421). […] VCaP-EnzR cells are enzalutamide-resistant and therefore are a suitable model for studying castration-resistant prostate cancer. All cell lines were cultured in RPMI1640 supplemented with 2 mmol/L L-glutamine. 100 U/mL penicillin, […] streptomycin, and 10% heat-inactivated fetal bovine serum. […]
Clonogenic Assay. […] The colonies were allowed to develop over 12 days, stained with crystal violet and automatically counted using a TC20 Automated Cell Counter (Bio Rad, Hercules, CA). […] Relative plating efficiencies were expressed as percentages relative to the plating efficiency of untreated cells and reported as the relative percent colony survival value. […]

LNCaP cells = assay: Clonogenic assay, LNCaP cells; conditions: for decrease in survival compared to 0.4 μM bicalutamide monotreatment: LNCaP, 10 μM oligopeptide with 0.4 μM bicalutamide, p<0.001; for decrease in colony survival compared to bicalutamide with 160 SPH: cell line not stated in the sentence (taken as LNCaP), 10 μM oligopeptide with bicalutamide
Procedure: as §1
Cell Culture. The C4 subline (CRL-3313™, RRID: CVCL 4783), which was derived from the human prostate carcinoma cell line LNCaP, was obtained from ATCC (Manassas, VA). C4, which is referred to herein as LNCaP, is an exemplary androgen receptor-positive (AR+ve) cell line that has an epithelial-like morphology and a low metastatic potential. The PC-3 cell line (CRL-1435, RRID: CVCL_0035) was obtained from ATCC (Manassas, VA). PC-3 is an exemplary androgen receptor-negative (AR−ve) cell line that has an epithelial morphology and a high metastatic potential. The Vertebral-Cancer of the Prostate (VCaP) cell line was obtained from Sigma-Aldrich, USA (Catalog No. 06020201). VCaP is a human cell line with an epithelial morphology that was established from a metastatic prostate cancer lesion (Korenchuk et al., In Vivo, 15(2):163˜168, 2001). VCaP cells are androgen receptor-positive and express high levels of prostate-specific antigen. The VCaP-EnzR cell line was also obtained from Sigma-Aldrich, USA (Catalog No. SCC421). […] VCaP-EnzR cells are enzalutamide-resistant and therefore are a suitable model for studying castration-resistant prostate cancer. All cell lines were cultured in RPMI1640 supplemented with 2 mmol/L L-glutamine. 100 U/mL penicillin, […] streptomycin, and 10% heat-inactivated fetal bovine serum. All cells were certified negative for Mycoplasma.
Clonogenic Assay. Confluent cells were trypsinized and seeded at densities ranging from 3000 to 5000 cells in 10 cm Petri dishes, depending on the cell line, as recommended in the ATCC or Sigma-Aldrich product sheets. […] Treatments were applied daily for 5 days without media changes. The colonies were allowed to develop over 12 days, stained with crystal violet and automatically counted using a TC20 Automated Cell Counter (Bio Rad, Hercules, CA). Each assay was internally controlled using untreated cells (cell media+0.1% DMSO). Relative plating efficiencies were expressed as percentages relative to the plating efficiency of untreated cells and reported as the relative percent colony survival value. All experiments were performed in triplicate.
All oligopeptides were tested in combination with BIC or ENZ in clonogenic assays. […] SPH absent wells (DMSO 0.04%) were used as the negative control. All experiments were run in triplicate.

VCaP cells = assay: Clonogenic assay, VCaP cells; conditions: 10 μM oligopeptide with […] enzalutamide, p<0.001
Procedure: as §1
(§2) Cell Culture. The C4 subline (CRL-3313™, RRID: CVCL 4783), which was derived from the human prostate carcinoma cell line LNCaP, was obtained from ATCC (Manassas, VA). C4, which is referred to herein as LNCaP, is an exemplary androgen receptor-positive (AR+ve) cell line that has an epithelial-like morphology and a low metastatic potential. The PC-3 cell line (CRL-1435, RRID: CVCL_0035) was obtained from ATCC (Manassas, VA). PC-3 is an exemplary androgen receptor-negative (AR−ve) cell line that has an epithelial morphology and a high metastatic potential. The Vertebral-Cancer of the Prostate (VCaP) cell line was obtained from Sigma-Aldrich, USA (Catalog No. 06020201). […]
(§3) Clonogenic Assay. […] The colonies were allowed to develop over 12 days, stained with crystal violet and automatically counted using a TC20 Automated Cell Counter (Bio Rad, Hercules, CA). […]

VCaP-EnzR cells = assay: Clonogenic assay, VCaP-EnzR cells; conditions: 10 μM oligopeptide with […] μM enzalutamide, p<0.001
Procedure: as §1, §2, §3

Row | Compound | effect on percent colony survival (PC3 cells; 1 μM bicalutamide alone) | decrease in survival compared to 0.4 μM bicalutamide monotreatment (LNCaP cells) [%] | decrease in colony survival compared to bicalutamide with 160 SPH (LNCaP cells) [%] | decrease in survival compared to bicalutamide with 160 SPH (PC3 cells) [%] | decrease in cell survival compared to […] enzalutamide alone (VCaP cells) [%] | decrease in colony survival compared to enzalutamide with 160 SPH (VCaP-EnzR cells) [%]
1 | CC(O)(CS(=O)(=O)c1ccc(F)cc1)C(=O)Nc1ccc(C#N)c(C(F)(F)F)c1 (centres unmarked) [BIC, bicalutamide, reference compound] | did not result in a significant decrease in percent colony survival |  |  |  |  | 
2 | LDEESGEP [FT-005, synthetic oligopeptide; -B / -E: tested with bicalutamide / enzalutamide] |  | > 70 | > 50 | > 50 | > 50 | > 50
3 | REESGEP [FT-002, synthetic oligopeptide; -B / -E: tested with bicalutamide / enzalutamide] |  | > 70 | > 50 | > 50 | > 50 | > 50
